# Results from one PubChem assay

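Change in HTT-promoter-driven luminescence in engineered HEK293 reporter cells after a 24 h treatment, measured at one concentration.
Percent change in reporter signal versus vehicle (0%) down to no light (-100%); more negative values mean stronger inhibition of promoter activity.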

Values are in %.
Common to all entries: at 57.5 µM (top of the series).
Only part of the assay is listed here, not a random draw.

Result for COc1ccc(NC(=O)c2cnn(-c3ccc(C)cc3)c2-n2cccc2)cc1Cl was activity change -49.28%. COc1cccc(N2C(=O)C(CC(=O)Nc3cccc(F)c3)N(C3CCCC3)C2=O)c1 (stereo not drawn) gave activity change -24.94%. COc1ccc(CCN2C(=O)CN(C3CCCCCC3)C(=O)C2c2ccc(C)cc2)cc1OC (stereo not drawn) read activity change -13.63%. COc1ccc(-c2cc(C(=O)Nc3cc(C)nn3-c3ccccc3)no2)cc1OC gave activity change -6.78%.

Result for CC1CCCCN1Cc1c(O)ccc2c(=O)c(-c3cccc(Cl)c3)c(C(F)(F)F)oc12 (stereo not drawn) was activity change -17.6%. For CCCOc1ccc(NC(=O)CC2C(=O)N(c3ccccc3)C(=O)N2CCC(C)C)cc1 (stereo not drawn) the result was activity change -46.24%. Cc1cc(C)c(OCC(=O)Nc2cccc(-c3nc4ncccc4o3)c2)c(Br)c1 read activity change -25.58%. COc1ccc(Br)cc1CNC(=O)c1cc2ccccn2n1 gave activity change -11.44%.

For COc1cccc(-c2cc(C(=O)Nc3ccc4c(c3)OCO4)no2)c1 the result was activity change -1.952%. With Cc1nn(-c2ccc(N3CCCC3)nn2)c(C)c1CCC(=O)NCc1ccc(F)cc1 the assay gave activity change -15.51%. With Cc1nc2ccn(Cc3cccs3)c(=O)c2cc1C(=O)NCc1ccc(Br)cc1 the assay gave activity change -46.38%. COc1ccc2c(C)c(CCC(=O)NCc3ccc(C)cc3)c(=O)oc2c1 gave activity change -31.7%.

Result for COc1ccc(Cl)cc1NC(=O)c1cc(-c2ccc3c(c2)OCO3)on1 was activity change 3.883%. For CC(=O)c1ccc(NC(=O)c2noc3c2CCc2ccccc2-3)cc1 the result was activity change 23.47%. For COc1cc(OC)cc(C(=O)Nc2cc3c(cc2N2CCOCC2)n(C)c(=O)n3C)c1 the result was activity change -6.675%. With Cc1cc(S(=O)(=O)Nc2ccc(-c3ccc(N4CCCCCC4)nn3)cc2)c(C)cc1Cl the assay gave activity change -15.04%.

For Cc1ccc(Nc2nc3ccccc3c3nncn23)c(Cl)c1 the result was activity change -16.1%. O=C1C(=O)N(C2CCN(C(=O)c3ccc(F)cc3)CC2)CCN1Cc1ccc(F)cc1 read activity change -12.07%. O=C1C(=O)N(C2CCN(C(=O)c3ccccc3Cl)CC2)CCN1Cc1ccc(F)cc1 gave activity change -11.47%. Result for CCOC(=O)c1ccc(N2CCN(c3ccccc3F)CC2)c(NC(=O)Nc2ccc(Cl)c(Cl)c2)c1 was activity change -29.88%.

Result for CCCC12CN3CC(C)(CN(C1)C3c1ccccc1Cl)C2=O (stereo not drawn) was activity change 6.681%. COc1ccccc1CCN1COc2c(cc3c(C)c(C)c(=O)oc3c2C)C1 gave activity change -23.45%. COc1ccc(NC(c2nnc(-c3ccccc3)o2)c2ccccc2F)cc1Cl (stereo not drawn) gave activity change -36.73%. For COc1ccc(-c2cc(C(=O)Nc3cccnc3Cl)no2)cc1OC the result was activity change -7.213%.

CCc1c(C)c2cc3c(c(C)c2oc1=O)OCN(CCc1ccccc1F)C3 read activity change -17.4%. For Cc1ccc(C)c(CNC(=O)C2CCCCN2S(=O)(=O)c2ccc(F)cc2)c1 (stereo not drawn) the result was activity change -22.7%. For Cc1ccc(OCCCn2c(-c3ccc(Cl)cc3)nc3ccccc3c2=O)cc1C the result was activity change -15.61%. With CCCc1cc(=O)[nH]c(Nc2ccc(C(=O)O)cc2)n1 the assay gave activity change -7.247%.

With Cc1ccc(S(=O)(=O)Nc2cc3c(C(=O)OCc4ccccc4)c(C)oc3c3ccccc23)c(C)c1 the assay gave activity change -24.35%. COc1cccc(-c2cc(C(=O)NCc3ccc(F)cc3)no2)c1 read activity change -6.834%.

3 of the entries, repeated:

{"structure": "COc1ccc(-c2cc(C(=O)Nc3cc(C)nn3-c3ccccc3)no2)cc1OC", "activity change (%)": "-6.78"}
{"structure": "COc1ccc(Cl)cc1NC(=O)c1cc(-c2ccc3c(c2)OCO3)on1", "activity change (%)": "3.883"}
{"structure": "COc1ccc(Br)cc1CNC(=O)c1cc2ccccn2n1", "activity change (%)": "-11.44"}

Source: PubChem BioAssay AID1508623 (NCATS, 2021).